Measurements as given in article PMC3154509.
No constants are given. Whether binding was seen depends on the method and setting. In cells and extracts the contact can be indirect. Some binding calls cover weakened binding; strength is not graded here.

Amino acid sequences for entries named in this document (tags omitted).
UniProt O60674: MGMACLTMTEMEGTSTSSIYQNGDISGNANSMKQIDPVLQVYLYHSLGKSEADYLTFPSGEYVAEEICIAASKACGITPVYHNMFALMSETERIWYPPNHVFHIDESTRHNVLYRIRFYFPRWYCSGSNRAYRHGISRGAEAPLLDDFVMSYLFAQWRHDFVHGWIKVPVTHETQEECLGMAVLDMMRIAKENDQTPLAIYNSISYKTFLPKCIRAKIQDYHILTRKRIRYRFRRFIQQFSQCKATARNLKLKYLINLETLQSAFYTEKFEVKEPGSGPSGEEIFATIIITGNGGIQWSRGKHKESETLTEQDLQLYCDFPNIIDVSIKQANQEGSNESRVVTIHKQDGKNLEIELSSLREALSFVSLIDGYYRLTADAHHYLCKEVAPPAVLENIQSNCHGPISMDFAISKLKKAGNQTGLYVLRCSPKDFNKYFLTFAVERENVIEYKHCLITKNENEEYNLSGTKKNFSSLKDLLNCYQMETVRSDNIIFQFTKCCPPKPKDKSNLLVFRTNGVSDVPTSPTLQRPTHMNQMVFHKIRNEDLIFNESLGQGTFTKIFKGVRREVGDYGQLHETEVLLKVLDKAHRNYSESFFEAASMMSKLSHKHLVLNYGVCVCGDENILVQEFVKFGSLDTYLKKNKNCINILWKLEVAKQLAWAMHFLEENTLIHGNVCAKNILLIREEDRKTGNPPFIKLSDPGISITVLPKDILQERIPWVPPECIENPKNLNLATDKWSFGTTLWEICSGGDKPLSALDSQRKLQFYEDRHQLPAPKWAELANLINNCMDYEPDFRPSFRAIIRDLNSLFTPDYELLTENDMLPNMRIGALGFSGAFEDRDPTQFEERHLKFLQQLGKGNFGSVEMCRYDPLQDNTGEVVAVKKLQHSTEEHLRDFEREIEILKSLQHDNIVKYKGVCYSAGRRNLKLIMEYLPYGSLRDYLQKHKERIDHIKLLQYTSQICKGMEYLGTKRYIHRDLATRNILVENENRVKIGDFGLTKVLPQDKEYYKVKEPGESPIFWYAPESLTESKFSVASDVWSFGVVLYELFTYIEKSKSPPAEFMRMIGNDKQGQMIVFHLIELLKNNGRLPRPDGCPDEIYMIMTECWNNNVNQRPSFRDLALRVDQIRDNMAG
UniProt Q9UQQ2: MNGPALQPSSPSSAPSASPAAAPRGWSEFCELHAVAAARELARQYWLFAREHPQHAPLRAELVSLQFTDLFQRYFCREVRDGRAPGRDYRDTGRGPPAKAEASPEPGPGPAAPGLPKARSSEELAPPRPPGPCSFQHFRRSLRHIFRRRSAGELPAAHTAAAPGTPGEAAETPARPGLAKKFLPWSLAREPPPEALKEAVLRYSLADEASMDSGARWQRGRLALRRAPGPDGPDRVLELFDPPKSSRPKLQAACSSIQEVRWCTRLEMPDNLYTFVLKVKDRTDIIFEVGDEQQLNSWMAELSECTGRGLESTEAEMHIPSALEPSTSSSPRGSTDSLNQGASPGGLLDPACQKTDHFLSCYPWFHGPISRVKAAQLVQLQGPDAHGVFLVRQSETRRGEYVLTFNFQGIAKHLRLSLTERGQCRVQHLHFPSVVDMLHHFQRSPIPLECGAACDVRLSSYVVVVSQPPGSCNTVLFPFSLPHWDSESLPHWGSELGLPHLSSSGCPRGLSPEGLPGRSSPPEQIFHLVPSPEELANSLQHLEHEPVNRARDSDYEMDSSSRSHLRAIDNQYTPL

Biological target: Jak2 tyrosine kinase (endogenous, M-MOK cells) (human (endogenous in M-MOK)) (UniProt O60674)
Test: co-IP; as a1, but cells not stimulated with TPO; anti-Jak2 immunoprecipitation, blot with anti-pentaHis; only the binder purified

WT Lnk R8 fusion protein (human wild-type Lnk-6×His-R8) (from UniProt Q9UQQ2 1-575)
binding: binds weakly
